From the supplement of paper PMC6411743
± gives the standard deviation of the averaged measurements. The entries are a selection whose mix differs from that of the whole data set.

Chains of the proteins cited; added tags and fusions are not shown. Lines headed by an entry give the natural chain unless they say otherwise; changes in a name come on top.
UniProt P35659: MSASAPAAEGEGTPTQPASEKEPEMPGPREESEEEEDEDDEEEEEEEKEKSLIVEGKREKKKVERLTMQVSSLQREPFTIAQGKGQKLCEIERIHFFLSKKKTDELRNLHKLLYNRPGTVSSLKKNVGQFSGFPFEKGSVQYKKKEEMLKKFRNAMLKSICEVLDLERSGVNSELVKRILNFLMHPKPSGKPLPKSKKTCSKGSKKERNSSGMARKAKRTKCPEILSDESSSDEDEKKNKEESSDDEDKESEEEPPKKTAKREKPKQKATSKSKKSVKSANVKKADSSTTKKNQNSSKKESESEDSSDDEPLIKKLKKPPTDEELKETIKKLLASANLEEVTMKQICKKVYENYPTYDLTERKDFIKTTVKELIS
UniProt P36404: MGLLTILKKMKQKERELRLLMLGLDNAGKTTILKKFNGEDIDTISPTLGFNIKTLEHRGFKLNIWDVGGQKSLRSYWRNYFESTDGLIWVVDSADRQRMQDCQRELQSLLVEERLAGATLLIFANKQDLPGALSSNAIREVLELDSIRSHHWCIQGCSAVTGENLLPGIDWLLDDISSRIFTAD
UniProt P29401: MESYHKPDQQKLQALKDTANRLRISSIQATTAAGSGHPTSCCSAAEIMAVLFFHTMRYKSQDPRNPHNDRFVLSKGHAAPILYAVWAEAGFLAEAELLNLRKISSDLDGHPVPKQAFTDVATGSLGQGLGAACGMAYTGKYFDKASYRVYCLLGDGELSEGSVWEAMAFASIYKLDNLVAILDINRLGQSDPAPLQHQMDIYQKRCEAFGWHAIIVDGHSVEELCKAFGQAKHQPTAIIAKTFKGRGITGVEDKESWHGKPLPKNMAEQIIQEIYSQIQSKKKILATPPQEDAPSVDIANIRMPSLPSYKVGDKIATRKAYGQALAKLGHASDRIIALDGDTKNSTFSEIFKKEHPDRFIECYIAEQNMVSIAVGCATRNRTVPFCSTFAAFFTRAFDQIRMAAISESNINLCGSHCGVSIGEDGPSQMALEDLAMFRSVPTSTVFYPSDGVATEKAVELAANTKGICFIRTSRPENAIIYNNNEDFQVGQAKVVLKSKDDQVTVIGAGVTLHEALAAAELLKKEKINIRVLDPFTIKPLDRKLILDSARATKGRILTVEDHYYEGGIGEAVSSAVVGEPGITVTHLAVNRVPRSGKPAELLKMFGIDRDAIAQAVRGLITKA
UniProt P20020: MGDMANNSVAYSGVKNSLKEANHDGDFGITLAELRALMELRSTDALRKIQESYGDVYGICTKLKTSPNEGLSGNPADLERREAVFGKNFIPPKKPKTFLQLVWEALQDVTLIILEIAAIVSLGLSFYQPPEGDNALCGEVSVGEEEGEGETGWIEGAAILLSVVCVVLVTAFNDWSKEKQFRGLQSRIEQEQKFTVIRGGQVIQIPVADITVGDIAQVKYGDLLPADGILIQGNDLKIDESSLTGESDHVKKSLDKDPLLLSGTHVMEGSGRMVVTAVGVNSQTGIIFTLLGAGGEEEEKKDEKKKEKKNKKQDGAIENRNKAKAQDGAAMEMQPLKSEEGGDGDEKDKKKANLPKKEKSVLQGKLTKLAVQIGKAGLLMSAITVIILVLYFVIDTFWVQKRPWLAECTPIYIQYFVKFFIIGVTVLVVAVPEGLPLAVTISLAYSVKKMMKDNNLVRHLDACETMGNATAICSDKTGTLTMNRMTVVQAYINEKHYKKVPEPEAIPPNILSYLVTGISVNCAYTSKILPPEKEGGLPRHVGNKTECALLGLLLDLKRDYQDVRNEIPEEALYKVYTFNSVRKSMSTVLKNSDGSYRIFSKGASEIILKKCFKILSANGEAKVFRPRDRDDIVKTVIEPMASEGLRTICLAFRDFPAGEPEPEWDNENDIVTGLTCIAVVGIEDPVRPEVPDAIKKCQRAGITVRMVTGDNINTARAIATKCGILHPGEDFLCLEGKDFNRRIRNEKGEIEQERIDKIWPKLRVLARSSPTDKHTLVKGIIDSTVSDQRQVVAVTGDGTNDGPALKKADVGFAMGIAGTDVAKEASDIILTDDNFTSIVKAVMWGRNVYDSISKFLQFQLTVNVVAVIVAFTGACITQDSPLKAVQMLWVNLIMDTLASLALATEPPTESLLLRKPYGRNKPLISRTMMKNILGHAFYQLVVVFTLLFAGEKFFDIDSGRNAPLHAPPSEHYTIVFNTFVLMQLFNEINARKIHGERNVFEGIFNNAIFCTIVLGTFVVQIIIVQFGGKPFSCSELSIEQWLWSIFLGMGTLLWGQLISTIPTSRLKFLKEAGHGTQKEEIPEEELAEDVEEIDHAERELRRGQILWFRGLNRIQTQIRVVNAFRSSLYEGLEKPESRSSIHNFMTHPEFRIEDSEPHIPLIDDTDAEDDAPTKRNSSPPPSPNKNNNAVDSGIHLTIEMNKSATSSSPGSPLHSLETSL
UniProt P28799: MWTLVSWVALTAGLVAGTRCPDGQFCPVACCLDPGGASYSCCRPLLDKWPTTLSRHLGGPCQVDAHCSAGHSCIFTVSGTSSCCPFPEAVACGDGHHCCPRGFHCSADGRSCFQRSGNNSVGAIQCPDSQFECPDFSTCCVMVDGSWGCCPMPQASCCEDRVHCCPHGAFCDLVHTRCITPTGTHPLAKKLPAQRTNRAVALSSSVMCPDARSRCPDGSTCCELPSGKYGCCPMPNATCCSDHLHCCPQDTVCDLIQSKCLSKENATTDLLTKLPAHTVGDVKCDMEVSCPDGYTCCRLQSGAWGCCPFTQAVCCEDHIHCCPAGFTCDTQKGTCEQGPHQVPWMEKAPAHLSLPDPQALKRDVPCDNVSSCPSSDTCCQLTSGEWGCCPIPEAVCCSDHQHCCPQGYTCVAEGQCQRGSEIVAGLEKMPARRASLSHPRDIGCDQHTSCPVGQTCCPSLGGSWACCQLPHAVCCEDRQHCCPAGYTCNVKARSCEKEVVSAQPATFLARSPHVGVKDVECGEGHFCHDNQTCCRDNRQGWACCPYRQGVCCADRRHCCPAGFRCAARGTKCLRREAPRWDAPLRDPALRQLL
UniProt P17812: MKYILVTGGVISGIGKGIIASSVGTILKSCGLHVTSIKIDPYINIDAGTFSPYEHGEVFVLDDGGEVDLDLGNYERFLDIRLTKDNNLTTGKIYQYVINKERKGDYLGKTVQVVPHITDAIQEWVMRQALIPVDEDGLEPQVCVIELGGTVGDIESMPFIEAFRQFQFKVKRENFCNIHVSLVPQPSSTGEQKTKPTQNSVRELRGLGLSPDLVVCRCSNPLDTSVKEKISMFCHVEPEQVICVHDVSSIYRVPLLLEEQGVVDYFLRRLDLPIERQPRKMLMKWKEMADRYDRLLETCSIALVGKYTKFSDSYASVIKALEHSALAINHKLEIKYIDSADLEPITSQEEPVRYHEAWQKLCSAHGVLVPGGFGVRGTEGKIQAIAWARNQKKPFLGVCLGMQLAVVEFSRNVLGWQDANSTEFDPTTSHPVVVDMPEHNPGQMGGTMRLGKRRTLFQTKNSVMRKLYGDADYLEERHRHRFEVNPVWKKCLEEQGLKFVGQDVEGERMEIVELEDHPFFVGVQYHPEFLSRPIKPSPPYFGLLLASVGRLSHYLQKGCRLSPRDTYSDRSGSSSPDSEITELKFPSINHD
UniProt P21675, whole entry: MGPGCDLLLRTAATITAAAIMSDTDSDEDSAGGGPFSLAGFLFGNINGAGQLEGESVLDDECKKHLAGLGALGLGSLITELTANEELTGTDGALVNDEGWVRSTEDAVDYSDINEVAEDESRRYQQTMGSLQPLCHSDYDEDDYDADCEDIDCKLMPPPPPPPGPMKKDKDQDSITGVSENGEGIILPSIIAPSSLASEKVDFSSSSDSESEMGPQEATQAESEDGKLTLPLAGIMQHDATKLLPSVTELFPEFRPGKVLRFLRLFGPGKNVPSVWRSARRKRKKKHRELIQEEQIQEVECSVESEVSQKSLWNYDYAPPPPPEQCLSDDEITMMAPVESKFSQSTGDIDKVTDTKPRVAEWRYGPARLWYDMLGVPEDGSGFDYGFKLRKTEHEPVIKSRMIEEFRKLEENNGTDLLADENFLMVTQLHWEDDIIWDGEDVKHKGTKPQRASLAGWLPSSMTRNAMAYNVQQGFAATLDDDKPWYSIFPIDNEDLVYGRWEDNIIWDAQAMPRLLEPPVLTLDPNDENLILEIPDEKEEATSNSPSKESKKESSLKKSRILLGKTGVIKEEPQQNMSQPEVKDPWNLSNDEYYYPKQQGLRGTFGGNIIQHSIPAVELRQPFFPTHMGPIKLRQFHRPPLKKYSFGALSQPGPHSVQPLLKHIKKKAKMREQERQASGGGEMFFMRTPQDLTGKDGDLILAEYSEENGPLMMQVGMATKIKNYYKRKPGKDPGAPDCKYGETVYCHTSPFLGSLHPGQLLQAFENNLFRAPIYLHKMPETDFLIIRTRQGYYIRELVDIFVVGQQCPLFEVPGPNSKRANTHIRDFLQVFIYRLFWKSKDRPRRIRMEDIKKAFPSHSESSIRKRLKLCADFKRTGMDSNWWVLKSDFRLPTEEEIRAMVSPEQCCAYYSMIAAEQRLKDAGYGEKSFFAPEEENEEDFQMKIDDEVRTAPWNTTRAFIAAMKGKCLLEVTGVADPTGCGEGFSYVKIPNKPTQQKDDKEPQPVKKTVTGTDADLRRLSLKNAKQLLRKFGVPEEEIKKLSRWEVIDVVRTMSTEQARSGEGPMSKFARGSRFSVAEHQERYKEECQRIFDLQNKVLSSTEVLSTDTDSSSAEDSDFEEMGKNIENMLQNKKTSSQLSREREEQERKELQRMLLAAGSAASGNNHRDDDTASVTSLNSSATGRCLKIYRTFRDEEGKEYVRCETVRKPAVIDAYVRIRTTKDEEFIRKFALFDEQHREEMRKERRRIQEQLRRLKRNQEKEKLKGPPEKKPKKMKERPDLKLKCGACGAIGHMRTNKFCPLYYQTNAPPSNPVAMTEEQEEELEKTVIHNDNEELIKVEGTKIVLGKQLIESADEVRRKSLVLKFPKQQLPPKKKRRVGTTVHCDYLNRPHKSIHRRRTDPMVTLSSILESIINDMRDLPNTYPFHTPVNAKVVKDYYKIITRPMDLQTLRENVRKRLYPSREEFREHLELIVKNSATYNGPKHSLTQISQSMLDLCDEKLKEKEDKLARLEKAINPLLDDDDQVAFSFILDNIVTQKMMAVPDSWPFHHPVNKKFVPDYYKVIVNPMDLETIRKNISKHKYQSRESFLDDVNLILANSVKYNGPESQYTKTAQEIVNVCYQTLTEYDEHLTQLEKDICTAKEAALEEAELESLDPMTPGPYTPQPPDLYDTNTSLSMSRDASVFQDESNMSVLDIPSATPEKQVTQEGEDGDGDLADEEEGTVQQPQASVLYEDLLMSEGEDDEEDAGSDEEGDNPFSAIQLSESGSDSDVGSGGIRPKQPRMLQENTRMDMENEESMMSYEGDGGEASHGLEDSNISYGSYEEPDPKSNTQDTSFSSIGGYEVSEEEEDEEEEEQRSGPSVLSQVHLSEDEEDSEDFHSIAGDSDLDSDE
UniProt P24723, whole entry, looked up: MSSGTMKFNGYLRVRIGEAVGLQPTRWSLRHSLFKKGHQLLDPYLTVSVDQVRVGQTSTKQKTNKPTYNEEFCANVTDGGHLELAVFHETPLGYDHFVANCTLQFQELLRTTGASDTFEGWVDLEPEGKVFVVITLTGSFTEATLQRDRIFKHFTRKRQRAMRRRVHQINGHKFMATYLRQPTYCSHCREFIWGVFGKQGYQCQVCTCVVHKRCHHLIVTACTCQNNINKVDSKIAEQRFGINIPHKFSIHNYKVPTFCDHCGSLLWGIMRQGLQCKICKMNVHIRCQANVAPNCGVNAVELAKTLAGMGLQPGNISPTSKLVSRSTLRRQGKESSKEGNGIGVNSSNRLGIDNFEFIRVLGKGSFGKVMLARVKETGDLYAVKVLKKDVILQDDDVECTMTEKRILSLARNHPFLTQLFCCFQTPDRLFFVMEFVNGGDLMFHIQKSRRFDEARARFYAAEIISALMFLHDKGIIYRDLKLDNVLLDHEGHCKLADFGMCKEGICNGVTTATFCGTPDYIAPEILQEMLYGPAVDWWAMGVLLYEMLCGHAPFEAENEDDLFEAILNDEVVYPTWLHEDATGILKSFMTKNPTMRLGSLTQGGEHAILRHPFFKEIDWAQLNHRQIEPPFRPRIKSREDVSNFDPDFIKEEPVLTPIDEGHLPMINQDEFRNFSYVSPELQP
UniProt P27361, whole entry: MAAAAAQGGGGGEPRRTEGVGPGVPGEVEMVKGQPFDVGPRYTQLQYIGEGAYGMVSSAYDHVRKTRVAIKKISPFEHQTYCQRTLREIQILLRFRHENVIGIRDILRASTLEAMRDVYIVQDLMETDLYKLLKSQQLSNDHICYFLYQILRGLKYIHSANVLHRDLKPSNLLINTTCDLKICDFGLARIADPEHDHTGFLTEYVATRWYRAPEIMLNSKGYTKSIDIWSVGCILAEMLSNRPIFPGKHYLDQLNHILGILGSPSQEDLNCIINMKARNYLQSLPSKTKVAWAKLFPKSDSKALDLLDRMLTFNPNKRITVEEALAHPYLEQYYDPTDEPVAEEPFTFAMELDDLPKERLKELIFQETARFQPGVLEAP

Compound: Nc1ncnc2c1ncn2[C@@H]1O[C@H](COP(=O)(O)OP(=O)(O)NP(=O)(O)O)[C@@H](O)[C@H]1O [adenylyl imidodiphosphate]
Assay: NP40-soluble protein abundance relative to vehicle (solubility fold change) (ratio); higher = more soluble protein in presence of AMP-PNP
How it was run: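 Jurkat crude lysate (Dounce-homogenised) was treated with eight concentrations from 0.1 to 10 mM for 10 min at room temperature, then 3 min at 37 °C. It was solubilised with 0.8% NP40 and benzonase (60 min, 4 °C) and ultracentrifuged, and the supernatant was TMT-labelled for LC-MS/MS. Intensities were vsn-normalised, and the value is the fold change against the NP40-processed vehicle per replicate, from three independent experiments.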

Target	NP40-soluble protein abundance (concentration: 1mM)	NP40-soluble protein abundance (concentration: 2mM)	NP40-soluble protein abundance (concentration: 4mM)	NP40-soluble protein abundance (concentration: 6mM)	NP40-soluble protein abundance (concentration: 8mM)	NP40-soluble protein abundance (concentration: 10mM)
UniProt P29016	0.961 ± 0.07	0.988 ± 0.036	0.989 ± 0.039	0.975 ± 0.051	0.997 ± 0.057	0.994 ± 0.075
MCM7 (UniProt P33993)	0.944 ± 0.017	0.867 ± 0.089	0.931 ± 0.043	0.922 ± 0.017	0.949 ± 0.025	0.909 ± 0.067
UniProt P25445 and related entries	0.97 ± 0.01	1.09 ± 0.11	0.984 ± 0.033	1.04 ± 0.038	0.999 ± 0.014	1.05 ± 0.029
UniProt P18615	1.04 ± 0.017	1.08 ± 0.04	1.07 ± 0.012	1.05 ± 0.007	1.032 ± 0.0094	1.08 ± 0.016
DEK (UniProt P35659)	1.07 ± 0.025	1.19 ± 0.11	1.16 ± 0.029	1.21 ± 0.039	1.15 ± 0.11	1.26 ± 0.074
ATP6V1C1 (UniProt P21283)	0.999 ± 0.012	0.9651 ± 0.0032	0.982 ± 0.018	0.9568 ± 0.0058	0.968 ± 0.0073	0.954 ± 0.036
UniProt P30520	0.996 ± 0.024	1 ± 0.027	0.9881 ± 0.0078	0.9726 ± 0.0048	0.9707 ± 0.0055	0.9624 ± 0.0086
ARL2 (UniProt P36404)	0.972 ± 0.036	0.932 ± 0.035	0.963 ± 0.052	1 ± 0.056	0.992 ± 0.061	1.02 ± 0.046
UniProt P29401 and related entries	0.9787 ± 0.0092	0.941 ± 0.046	0.943 ± 0.018	0.978 ± 0.022	0.966 ± 0.027	0.957 ± 0.023
RFX1 (UniProt P22670)	1.04 ± 0.016	1.03 ± 0.015	1.03 ± 0.03	1 ± 0.033	1.01 ± 0.025	0.995 ± 0.02
UniProt P19367 and related entries	0.984 ± 0.019	0.883 ± 0.097	0.964 ± 0.03	0.995 ± 0.054	1.03 ± 0.011	0.964 ± 0.013
UniProt P20020 and related entries	1.03 ± 0.032	1.06 ± 0.044	1.03 ± 0.037	0.964 ± 0.012	0.96 ± 0.024	0.988 ± 0.057
UniProt P28799 and related entries	1.04 ± 0.03	1.09 ± 0.024	1.04 ± 0.035	0.999 ± 0.026	1.02 ± 0.034	1 ± 0.028
UniProt P29590 and related entries	1.01 ± 0.029	1.05 ± 0.049	0.9911 ± 0.007	0.9989 ± 0.0058	0.968 ± 0.012	0.991 ± 0.013
UniProt P22001	0.979 ± 0.012	0.986 ± 0.021	1.01 ± 0.027	0.997 ± 0.039	0.99 ± 0.046	0.976 ± 0.013
UniProt P35606 and related entries	1.01 ± 0.014	0.94 ± 0.084	0.975 ± 0.021	0.961 ± 0.028	0.99 ± 0.032	0.936 ± 0.044
UniProt P17812	0.932 ± 0.03	0.873 ± 0.06	0.91 ± 0.033	0.96 ± 0.077	0.97 ± 0.04	0.924 ± 0.044
UniProt P28074 and related entries	0.925 ± 0.072	0.828 ± 0.082	0.936 ± 0.12	0.95 ± 0.062	1.02 ± 0.11	1 ± 0.2
UniProt P24666 and related entries	1.02 ± 0.04	1 ± 0.022	0.997 ± 0.026	1.02 ± 0.029	1.02 ± 0.048	1.01 ± 0.046
UniProt P21675 and related entries	1 ± 0.03	1.04 ± 0.029	1.04 ± 0.044	1.03 ± 0.074	1.01 ± 0.074	1.06 ± 0.11
UniProt P28749 and related entries	0.992 ± 0.039	1.027 ± 0.0021	0.995 ± 0.037	0.9627 ± 0.001	0.951 ± 0.054	0.977 ± 0.069
SDHB (UniProt P21912)	0.976 ± 0.045	1 ± 0.056	0.987 ± 0.063	1.03 ± 0.079	1.02 ± 0.075	1.04 ± 0.052
UniProt P25098	1.013 ± 0.0097	0.985 ± 0.061	0.994 ± 0.028	0.982 ± 0.035	0.987 ± 0.03	0.979 ± 0.057
SRP14 (UniProt P37108)	0.951 ± 0.0084	1.03 ± 0.096	0.944 ± 0.015	1.01 ± 0.054	0.979 ± 0.042	1.01 ± 0.064
PRKCH (UniProt P24723)	1.01 ± 0.025	0.977 ± 0.037	1.04 ± 0.016	1.04 ± 0.067	1.06 ± 0.03	1.05 ± 0.025
RPL7 (UniProt P18124)	0.966 ± 0.094	0.953 ± 0.039	0.962 ± 0.07	0.895 ± 0.056	0.902 ± 0.097	0.985 ± 0.024
FKBP2 (UniProt P26885)	0.999 ± 0.02	1.04 ± 0.045	0.966 ± 0.019	0.9573 ± 0.0058	0.96 ± 0.011	0.945 ± 0.031
UniProt P22830 and related entries	0.97 ± 0.0094	0.91 ± 0.096	0.948 ± 0.015	0.939 ± 0.022	0.959 ± 0.037	0.893 ± 0.012
MAT2A (UniProt P31153)	0.989 ± 0.025	0.917 ± 0.077	0.963 ± 0.015	0.975 ± 0.021	0.98 ± 0.045	0.951 ± 0.019
UniProt P27361	0.991 ± 0.06	0.938 ± 0.031	0.974 ± 0.038	1.01 ± 0.082	1.04 ± 0.07	1 ± 0.029

Single records (already shown).
UniProt P25098 as listed: NP40-soluble protein abundance (concentration: 1mM): 1.013 ± 0.0097; NP40-soluble protein abundance (concentration: 2mM): 0.985 ± 0.061; NP40-soluble protein abundance (concentration: 4mM): 0.994 ± 0.028; NP40-soluble protein abundance (concentration: 6mM): 0.982 ± 0.035; NP40-soluble protein abundance (concentration: 8mM): 0.987 ± 0.03; NP40-soluble protein abundance (concentration: 10mM): 0.979 ± 0.057
UniProt P17812 as listed: NP40-soluble protein abundance (concentration: 1mM): 0.932 ± 0.03; NP40-soluble protein abundance (concentration: 2mM): 0.873 ± 0.06; NP40-soluble protein abundance (concentration: 4mM): 0.91 ± 0.033; NP40-soluble protein abundance (concentration: 6mM): 0.96 ± 0.077; NP40-soluble protein abundance (concentration: 8mM): 0.97 ± 0.04; NP40-soluble protein abundance (concentration: 10mM): 0.924 ± 0.044
